# Experimental data as given in the supplement of paper PMC4604168 (melanoma cell lines).
# The other results are listed elsewhere or left out. Many values rest on one well or one pass, so single values are uncertain.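 The apoptosis fraction was the count of cleaved-PARP antibody-stained nuclei relative to all DNA-stained nuclei, imaged in 1,536-well plates. Screening doses were set so most cells survived, and baseline and induced cleaved-PARP levels vary greatly across cell lines.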
# Tested on: WM115
# Experiment: cleaved PARP positive nuclei fraction relative to DMSO control; melanoma cells; higher = more apoptosis
# Details: library dose: low library concentration; 72 h
row,Compound,cleaved PARP positive nuclei fraction [%]
1,"C[As](C)SC[C@H](NC(=O)CC[C@H](N)C(=O)O)C(=O)NCC(=O)O [Darinaparsin] + COCC[n+]1c2c(n(Cc3cnccn3)c1C)C(=O)c1ccccc1C2=O [YM155] (first compound 0.4 µM, partner dose 0.0004 µM)",95.2
2,"COc1cc2c(Oc3ccc4[nH]c(C)cc4c3F)ncnc2cc1OCCCN1CCCC1 [cediranib] + Cc1cc(SCc2sc(-c3ccc(C(F)(F)F)c(F)c3)nc2C)ccc1OCC(=O)O [GW0742] (first compound 0.4 µM, partner dose 2 µM)",131
3,"C[C@]12O[C@H](C[C@]1(O)CO)n1c3ccccc3c3c4c(c5c6ccccc6n2c5c31)CNC4=O [Lestaurtinib] + Cn1c(=O)n(-c2ccc(C(C)(C)C#N)cc2)c2c3cc(-c4cnc5ccccc5c4)ccc3ncc21 [NVP-BEZ235] (first compound 0.004 µM, partner dose 0.004 µM)",104
4,"CN(C)S(=O)(=O)c1ccc2c(c1)/C(=C/c1cc3c([nH]1)CCCC3)C(=O)N2 + O=C(Oc1ccc([N+](=O)[O-])cc1)N1CCC(C(O)(c2ccc3c(c2)OCO3)c2ccc3c(c2)OCO3)CC1 [JZL184] (first compound 0.4 µM, partner dose 1 µM)",86.4
5,"Cc1cc(Nc2cc(N3CCN(C)CC3)nc(/C=C/c3ccccc3)n2)n[nH]1 + Cc1cc(SCc2sc(-c3ccc(C(F)(F)F)c(F)c3)nc2C)ccc1OCC(=O)O [GW0742] (first compound 0.04 µM, partner dose 2 µM)",129
